Measured values reported in patent publication US12577259B2 (MERCK SHARP & DOHME LLC, priority 2019, dated 2026).

Test: general procedure: Fmoc solid-phase peptide synthesis; PS Rink-Amide MBHA resin; HATU/DIPEA; DIC/Oxyma
Conditions: whole synthesis, scale 0.250 mmol, chloride after AG MP-1 resin exchange

Row | Substance | crude mass [mg]
1 | Int-A (Reagent A) | 399
2 | Int-A (Reagent B) | 300
